Some of these results come from one statement about several compounds together.
How the values were obtained:
[1] = target: T1, histamine H2 -receptor (Cavia porcellus, UniProt P47747); experiment: guinea pig atrium test (histamine H2-antagonist activity in vitro); details: isolated guinea pig right atrium, histamine-stimulated rate of beating, compound in contact 60 min, 37° C.
T1 construct: a spontaneously beating isolated portion of the guinea pig right atrium; from tissue; host or cells: isolated guinea pig right atrium

Protein sequences, listed by entry. Tags and fused reporters are not part of them.
UniProt P47747, whole entry: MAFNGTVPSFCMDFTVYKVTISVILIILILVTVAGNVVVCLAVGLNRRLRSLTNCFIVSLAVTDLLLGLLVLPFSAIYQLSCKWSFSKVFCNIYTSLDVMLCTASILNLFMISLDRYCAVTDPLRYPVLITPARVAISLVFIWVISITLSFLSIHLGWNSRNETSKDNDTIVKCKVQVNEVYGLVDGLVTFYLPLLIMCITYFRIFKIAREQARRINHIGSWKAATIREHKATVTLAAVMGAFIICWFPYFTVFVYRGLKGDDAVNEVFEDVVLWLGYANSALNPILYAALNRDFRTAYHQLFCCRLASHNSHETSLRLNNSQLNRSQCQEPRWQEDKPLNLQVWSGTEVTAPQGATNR
UniProt P31389, whole entry: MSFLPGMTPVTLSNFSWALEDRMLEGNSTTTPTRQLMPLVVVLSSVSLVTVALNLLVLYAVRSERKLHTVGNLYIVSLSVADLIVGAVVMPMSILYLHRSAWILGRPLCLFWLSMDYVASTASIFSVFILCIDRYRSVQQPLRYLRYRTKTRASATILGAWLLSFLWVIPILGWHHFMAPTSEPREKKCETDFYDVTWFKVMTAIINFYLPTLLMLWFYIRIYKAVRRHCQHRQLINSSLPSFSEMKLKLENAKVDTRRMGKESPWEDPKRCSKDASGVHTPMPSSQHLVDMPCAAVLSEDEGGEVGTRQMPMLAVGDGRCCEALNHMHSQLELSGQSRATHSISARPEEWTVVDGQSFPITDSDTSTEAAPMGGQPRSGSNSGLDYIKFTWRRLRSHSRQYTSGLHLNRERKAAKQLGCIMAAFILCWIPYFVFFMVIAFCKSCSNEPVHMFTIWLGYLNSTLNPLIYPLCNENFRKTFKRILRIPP

[2] = target: T2, histamine H1 -receptor (Cavia porcellus, UniProt P31389); experiment: guinea pig ileum test (histamine H1-antagonist activity in vitro); details: isolated guinea pig ileum, histamine-induced contraction, compound in contact 8 min, 30° C.
T2 construct: an isolated portion of the guinea pig ileum is secured under tension; from tissue; host or cells: isolated guinea pig ileum

| Compound | pA2 value [1] | pA2 value [2] |
| --- | --- | --- |
| Cc1cc(Br)cnc1CCCCNc1ncc(Cc2ccc(Cl)cc2)c(=O)[nH]1 [Example 1, 2-[4-(3-methyl-5-bromopyrid-2-yl)butylamino]-5-(4-chlorobenzyl)-4-pyrimidone] | less than 5 | greater than 8 |
| Cc1cc(Br)cnc1CCCCNc1ncc(Cc2ccc(O)cc2)c(=O)[nH]1 [Example 2, 2-[4-(5-bromo-3-methylpyrid-2-yl)butylamino]-5-(4-hydroxybenzyl)-4-pyrimidone] | less than 5 | greater than 8 |
| COc1ccc(Cc2cnc(NCCCCc3ncc(Br)cc3C)[nH]c2=O)cc1 [Example 3, 2-[4-(5-bromo-3-methylpyrid-2-yl)butylamino]-5-(4-methoxybenzyl)-4-pyrimidone] | less than 5 | greater than 8 |
| Cc1cc(Br)cnc1CCCCNc1ncc(Cc2ccc(F)cc2)c(=O)[nH]1 [Example 4, 2-[4-(5-bromo-3-methylpyrid-2-yl)butylamino]-5-(4-fluorobenzyl)-4-pyrimidone] | less than 5 | greater than 8 |
| COc1cccc(Cc2cnc(NCCCCc3ncc(Br)cc3C)[nH]c2=O)c1 [Example 5, 2-[4-(5-bromo-3-methylpyrid-2-yl)butylamino]-5-(3-methoxybenzyl)-4-pyrimidone] | less than 5 | greater than 8 |
| Cc1cc(Br)cnc1CCCCNc1ncc(Cc2ccc3c(c2)OCO3)c(=O)[nH]1 [Example 6, 2-[4-(5-bromo-3-methylpyrid-2-yl)butylamino]-5-(3,4-methylenedioxybenzyl)-4-pyrimidone] | less than 5 | greater than 8 |
| Cc1cc(Br)cnc1CCCCNc1ncc(Cc2ccccc2)c(=O)[nH]1 [Example 7, 2-[4-(5-bromo-3-methylpyrid-2-yl)butylamino]-5-benzyl-4-pyrimidone] | less than 5 | greater than 8 |

From patent US4537891A, “2-(3,5-Substituted-2-pyridylalkylamino)-5-benzyl-4-pyrimidones” (Smith Kline & French Laboratories Limited, priority 1982, dated 1985)
